Source: the supplement of paper PMC10849652
This is one part of the list.

Sequences of proteins named here, by UniProt entry; tags and fusion partners are left off. A change or cut given only in a name is not applied to a line headed by its entry.
UniProt Q6P1Q0: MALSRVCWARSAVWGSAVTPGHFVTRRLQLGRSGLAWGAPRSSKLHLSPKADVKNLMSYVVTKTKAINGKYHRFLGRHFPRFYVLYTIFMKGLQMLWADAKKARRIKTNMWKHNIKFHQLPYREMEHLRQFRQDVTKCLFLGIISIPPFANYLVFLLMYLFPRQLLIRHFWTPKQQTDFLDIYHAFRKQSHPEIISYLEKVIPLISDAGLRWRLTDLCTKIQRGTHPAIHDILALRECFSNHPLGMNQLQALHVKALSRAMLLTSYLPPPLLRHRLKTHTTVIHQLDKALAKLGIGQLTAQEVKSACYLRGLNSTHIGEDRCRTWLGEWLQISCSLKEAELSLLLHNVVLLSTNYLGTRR
UniProt Q9Y4W2: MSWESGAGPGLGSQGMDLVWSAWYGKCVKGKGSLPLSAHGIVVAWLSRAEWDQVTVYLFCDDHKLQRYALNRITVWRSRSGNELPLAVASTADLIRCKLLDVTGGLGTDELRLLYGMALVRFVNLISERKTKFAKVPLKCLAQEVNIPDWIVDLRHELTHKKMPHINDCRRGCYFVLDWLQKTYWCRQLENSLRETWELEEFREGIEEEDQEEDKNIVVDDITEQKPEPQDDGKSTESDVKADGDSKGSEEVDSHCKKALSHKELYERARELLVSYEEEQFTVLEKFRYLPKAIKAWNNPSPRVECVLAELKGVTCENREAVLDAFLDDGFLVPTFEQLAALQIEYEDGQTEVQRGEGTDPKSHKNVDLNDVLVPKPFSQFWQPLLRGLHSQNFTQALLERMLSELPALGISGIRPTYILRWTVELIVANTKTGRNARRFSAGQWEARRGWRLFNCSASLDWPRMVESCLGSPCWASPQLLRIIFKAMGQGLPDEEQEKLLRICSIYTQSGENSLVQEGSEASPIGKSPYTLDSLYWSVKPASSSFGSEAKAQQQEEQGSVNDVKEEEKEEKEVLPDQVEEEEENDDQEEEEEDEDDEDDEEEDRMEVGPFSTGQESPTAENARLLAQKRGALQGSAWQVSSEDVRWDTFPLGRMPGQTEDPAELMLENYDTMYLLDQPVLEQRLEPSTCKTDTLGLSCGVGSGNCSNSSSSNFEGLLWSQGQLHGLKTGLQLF
UniProt Q15334: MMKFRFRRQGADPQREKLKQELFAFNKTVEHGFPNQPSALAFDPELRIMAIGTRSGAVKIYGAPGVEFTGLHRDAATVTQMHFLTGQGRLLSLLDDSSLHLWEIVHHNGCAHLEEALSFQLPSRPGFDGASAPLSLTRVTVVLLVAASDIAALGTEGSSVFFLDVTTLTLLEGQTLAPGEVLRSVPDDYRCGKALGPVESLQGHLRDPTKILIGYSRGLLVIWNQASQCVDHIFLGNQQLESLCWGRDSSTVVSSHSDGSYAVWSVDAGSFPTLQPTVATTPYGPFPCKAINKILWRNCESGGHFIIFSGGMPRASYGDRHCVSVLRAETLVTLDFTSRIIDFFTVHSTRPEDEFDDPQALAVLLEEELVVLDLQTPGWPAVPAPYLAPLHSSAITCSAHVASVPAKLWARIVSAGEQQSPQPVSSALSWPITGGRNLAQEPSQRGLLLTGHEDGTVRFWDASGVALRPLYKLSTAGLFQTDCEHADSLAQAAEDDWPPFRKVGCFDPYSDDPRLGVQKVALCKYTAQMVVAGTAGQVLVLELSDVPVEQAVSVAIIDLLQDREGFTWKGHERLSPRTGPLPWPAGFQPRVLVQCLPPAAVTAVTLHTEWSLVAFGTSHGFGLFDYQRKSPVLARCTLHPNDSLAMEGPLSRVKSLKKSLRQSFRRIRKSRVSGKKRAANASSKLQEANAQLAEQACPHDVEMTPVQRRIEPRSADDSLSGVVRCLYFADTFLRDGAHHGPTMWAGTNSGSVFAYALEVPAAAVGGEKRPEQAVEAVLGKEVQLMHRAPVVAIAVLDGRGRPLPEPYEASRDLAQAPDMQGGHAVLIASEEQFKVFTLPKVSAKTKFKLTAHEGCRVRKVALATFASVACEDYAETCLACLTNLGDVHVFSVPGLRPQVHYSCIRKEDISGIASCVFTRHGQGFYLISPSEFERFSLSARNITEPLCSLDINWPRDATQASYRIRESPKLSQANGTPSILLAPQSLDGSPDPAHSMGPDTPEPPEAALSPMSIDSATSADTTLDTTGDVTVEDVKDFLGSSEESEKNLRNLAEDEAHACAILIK
UniProt Q9H089: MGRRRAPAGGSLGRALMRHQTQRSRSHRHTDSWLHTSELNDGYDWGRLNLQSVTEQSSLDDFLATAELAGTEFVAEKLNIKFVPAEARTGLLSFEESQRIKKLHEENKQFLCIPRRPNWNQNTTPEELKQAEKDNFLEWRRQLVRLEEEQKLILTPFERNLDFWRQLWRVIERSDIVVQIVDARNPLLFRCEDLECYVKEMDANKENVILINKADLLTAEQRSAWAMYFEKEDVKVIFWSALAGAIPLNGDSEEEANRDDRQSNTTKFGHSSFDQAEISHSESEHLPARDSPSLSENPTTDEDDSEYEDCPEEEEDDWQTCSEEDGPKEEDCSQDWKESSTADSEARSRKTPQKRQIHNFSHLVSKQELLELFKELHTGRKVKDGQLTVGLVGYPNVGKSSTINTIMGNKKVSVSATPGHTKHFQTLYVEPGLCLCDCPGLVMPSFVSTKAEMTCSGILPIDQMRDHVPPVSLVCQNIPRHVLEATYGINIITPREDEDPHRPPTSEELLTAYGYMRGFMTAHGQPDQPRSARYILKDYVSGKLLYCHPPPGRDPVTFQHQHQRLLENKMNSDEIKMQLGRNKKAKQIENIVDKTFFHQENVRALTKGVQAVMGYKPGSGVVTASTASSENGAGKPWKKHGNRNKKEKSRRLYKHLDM
UniProt O15116: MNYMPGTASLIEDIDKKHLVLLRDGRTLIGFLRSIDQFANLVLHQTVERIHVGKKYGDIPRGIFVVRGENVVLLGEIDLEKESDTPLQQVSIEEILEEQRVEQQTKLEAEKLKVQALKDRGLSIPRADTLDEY
UniProt Q6MZP7: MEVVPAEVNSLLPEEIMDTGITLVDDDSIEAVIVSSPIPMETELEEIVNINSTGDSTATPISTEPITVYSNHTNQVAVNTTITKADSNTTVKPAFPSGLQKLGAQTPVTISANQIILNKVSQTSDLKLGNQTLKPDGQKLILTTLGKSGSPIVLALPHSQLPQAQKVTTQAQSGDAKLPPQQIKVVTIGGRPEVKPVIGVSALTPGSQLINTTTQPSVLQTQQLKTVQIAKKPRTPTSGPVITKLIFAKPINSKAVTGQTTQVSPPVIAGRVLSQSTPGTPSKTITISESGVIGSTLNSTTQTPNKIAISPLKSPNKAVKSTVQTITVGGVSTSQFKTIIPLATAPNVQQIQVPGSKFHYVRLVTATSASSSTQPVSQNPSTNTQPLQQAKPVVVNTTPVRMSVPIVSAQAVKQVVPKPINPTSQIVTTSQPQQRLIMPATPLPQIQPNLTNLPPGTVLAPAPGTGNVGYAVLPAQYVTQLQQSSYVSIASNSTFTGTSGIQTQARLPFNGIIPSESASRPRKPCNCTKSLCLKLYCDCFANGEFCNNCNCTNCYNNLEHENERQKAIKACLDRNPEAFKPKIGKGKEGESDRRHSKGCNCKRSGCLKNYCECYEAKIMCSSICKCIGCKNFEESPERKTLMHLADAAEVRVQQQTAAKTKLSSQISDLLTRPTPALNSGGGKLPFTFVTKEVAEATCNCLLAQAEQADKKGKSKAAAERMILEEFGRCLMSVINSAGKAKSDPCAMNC
UniProt Q9Y4Z0: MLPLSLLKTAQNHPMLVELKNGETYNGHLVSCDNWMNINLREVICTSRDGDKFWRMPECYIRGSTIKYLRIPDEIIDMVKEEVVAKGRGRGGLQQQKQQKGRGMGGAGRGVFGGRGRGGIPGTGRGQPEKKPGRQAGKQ
UniProt Q9UK45: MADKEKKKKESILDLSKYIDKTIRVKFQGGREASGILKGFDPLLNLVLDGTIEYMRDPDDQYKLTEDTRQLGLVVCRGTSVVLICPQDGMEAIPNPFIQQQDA
UniProt Q9NUP9: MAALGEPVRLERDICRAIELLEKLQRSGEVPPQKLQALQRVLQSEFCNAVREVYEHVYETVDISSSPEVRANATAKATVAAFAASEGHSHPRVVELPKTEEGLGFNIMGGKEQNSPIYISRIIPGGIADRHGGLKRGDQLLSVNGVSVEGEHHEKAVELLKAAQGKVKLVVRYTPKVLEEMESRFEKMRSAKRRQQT
UniProt P17931, whole entry, looked up: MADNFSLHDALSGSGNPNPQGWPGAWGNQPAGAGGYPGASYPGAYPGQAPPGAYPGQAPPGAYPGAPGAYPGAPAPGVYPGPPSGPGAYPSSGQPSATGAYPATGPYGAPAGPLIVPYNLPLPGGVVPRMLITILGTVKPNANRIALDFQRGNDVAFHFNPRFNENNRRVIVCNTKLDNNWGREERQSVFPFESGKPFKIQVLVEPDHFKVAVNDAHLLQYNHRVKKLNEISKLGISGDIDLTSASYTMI
UniProt O60294: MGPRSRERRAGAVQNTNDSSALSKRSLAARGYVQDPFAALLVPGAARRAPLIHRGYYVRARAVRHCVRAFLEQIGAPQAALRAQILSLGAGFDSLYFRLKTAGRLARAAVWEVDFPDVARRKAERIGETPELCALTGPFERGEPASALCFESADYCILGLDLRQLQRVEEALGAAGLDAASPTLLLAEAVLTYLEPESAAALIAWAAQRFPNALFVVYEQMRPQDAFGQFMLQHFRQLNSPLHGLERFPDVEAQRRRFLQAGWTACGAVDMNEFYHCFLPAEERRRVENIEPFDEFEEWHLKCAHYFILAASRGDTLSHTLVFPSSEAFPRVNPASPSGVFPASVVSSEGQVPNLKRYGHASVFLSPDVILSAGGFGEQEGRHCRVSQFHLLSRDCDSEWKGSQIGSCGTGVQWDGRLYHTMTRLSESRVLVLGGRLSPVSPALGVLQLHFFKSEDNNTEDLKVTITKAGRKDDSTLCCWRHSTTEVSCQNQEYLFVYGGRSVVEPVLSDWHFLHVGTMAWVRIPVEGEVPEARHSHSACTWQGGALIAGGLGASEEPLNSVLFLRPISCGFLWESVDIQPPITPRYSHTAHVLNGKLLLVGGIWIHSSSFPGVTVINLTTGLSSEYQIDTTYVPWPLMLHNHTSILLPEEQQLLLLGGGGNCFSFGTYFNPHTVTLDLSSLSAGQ
UniProt Q9H9A6: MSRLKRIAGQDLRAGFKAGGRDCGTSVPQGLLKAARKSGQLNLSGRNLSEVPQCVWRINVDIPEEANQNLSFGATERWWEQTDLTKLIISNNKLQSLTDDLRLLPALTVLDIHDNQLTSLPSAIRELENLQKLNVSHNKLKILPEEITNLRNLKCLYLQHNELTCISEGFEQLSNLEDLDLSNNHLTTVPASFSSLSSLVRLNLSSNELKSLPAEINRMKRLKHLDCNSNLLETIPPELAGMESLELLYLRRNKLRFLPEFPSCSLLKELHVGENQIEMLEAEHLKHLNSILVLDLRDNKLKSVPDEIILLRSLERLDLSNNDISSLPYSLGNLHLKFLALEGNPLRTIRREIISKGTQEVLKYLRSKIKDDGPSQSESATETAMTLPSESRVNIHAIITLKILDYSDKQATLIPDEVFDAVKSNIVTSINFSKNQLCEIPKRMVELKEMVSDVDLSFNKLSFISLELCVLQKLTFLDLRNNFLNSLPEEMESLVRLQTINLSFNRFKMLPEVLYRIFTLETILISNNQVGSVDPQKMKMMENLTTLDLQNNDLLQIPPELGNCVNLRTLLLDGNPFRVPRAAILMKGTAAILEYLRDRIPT
UniProt P48059, whole entry, looked up: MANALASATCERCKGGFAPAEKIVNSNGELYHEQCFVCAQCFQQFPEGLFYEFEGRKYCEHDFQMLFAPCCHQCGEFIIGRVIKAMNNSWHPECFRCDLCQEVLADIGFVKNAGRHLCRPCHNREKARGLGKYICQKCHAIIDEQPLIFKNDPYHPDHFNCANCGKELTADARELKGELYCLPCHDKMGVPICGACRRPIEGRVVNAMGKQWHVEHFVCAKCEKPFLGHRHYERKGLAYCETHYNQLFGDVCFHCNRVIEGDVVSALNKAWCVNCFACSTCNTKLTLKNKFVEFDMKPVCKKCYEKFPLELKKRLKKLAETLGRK

Legend:
Test in all cases: log2 fold change, soluble protein after heating vs DMSO (PISA); higher = thermal stabilisation; K562 lysate, 10 uM; active = over 0.2 and 3.5 SD of the protein, either way, in both replicates (recomputed)
ibrutinib = compound: C=CC(=O)N1CCC[C@@H](n2nc(-c3ccc(Oc4ccccc4)cc3)c3c(N)ncnc32)C1 [ibrutinib]
Outline: (§1)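 Following dounce homogenisation of K562 pellets in PBS pH 7.4 with 1 mM MgCl2, crude extract at 1 mg/mL protein was incubated for 30 min with 10 μM compound. Aliquots were then heated for 3 min over 48°C-58°C and pooled, NP-40 was added to 0.5% at 4°C, and soluble protein was recovered as the supernatant at 21,000xg for 90 min. Channel-sum-equalised TMTpro 16plex LC-MS/MS quantified this protein. Each value, from duplicates, is a log-two fold change in thermal stability relative to solvent controls.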

[1] = compound: CC(=O)c1cnc2ccc(-c3cc(Cl)c(O)c(Cl)c3)nc2c1N[C@H]1CC[C@H](CN(C)C)CC1
Outline: as §1

ralimetinib = compound: CC(C)(C)Cn1c(N)nc2ccc(-c3[nH]c(C(C)(C)C)nc3-c3ccc(F)cc3)nc21 [ralimetinib]
Outline: as §1

[2] = compound: CC(C)(O)CC(=O)NCCn1ccc2ncnc(Nc3ccc(Oc4cccc(C(F)(F)F)c4)c(Cl)c3)c21
Outline: as §1

[3] = compound: CC(C)C1=C2N=C(C=C(N2N=C1)NCC3=CC=CC=C3)NCCCCCCN
Outline: as §1

[4] = compound: CC1=C(C(CC(=O)N1)C2=CC=C(C=C2)C(F)(F)F)C(=O)NC3=C(C=C4C(=C3)C=NN4)F
Outline: as §1

[5] = compound: CC1=C(C2=C(C=C1)C(=O)C3=CC=CC=C3N2CCCN)C
Outline: as §1

[6] = compound: CC1=C(C=C(C=C1)NC(=O)C2=CC(=CC=C2)C(C)(C)C#N)NC3=CC4=C(C=C3)N=CN(C4=O)C
Outline: as §1

[7] = compound: CC1=C(C=C(C=C1)NC(=O)C2=CC(=CC=C2)N(C)C)NC(=O)C3=CC=C(C=C3)O
Outline: as §1

[8] = compound: CC1=CC=C(C=C1)SC2=C3C=C(SC3=CN=C2)C(=O)N
Outline: as §1

vemurafenib = compound: CCCS(=O)(=O)Nc1ccc(F)c(C(=O)c2c[nH]c3ncc(-c4ccc(Cl)cc4)cc23)c1F [vemurafenib]
Outline: as §1

[9] = compound: CCCS(=O)(=O)Nc1ccc(F)c(C(=O)c2c[nH]c3ncc(Cl)cc23)c1F
Outline: as §1

barasertib = compound: CCN(CCCOc1ccc2c(Nc3cc(CC(=O)Nc4cccc(F)c4)[nH]n3)ncnc2c1)CCOP(=O)(O)O [barasertib]
Outline: as §1

[10] = compound: CC[C@@H]1C(=O)N(C)c2cnc(Nc3ccc(C(=O)NC4CCN(C)CC4)cc3OC)nc2N1C1CCCC1
Outline: as §1

volasertib = compound: CC[C@@H]1C(=O)N(C)c2cnc(Nc3ccc(C(=O)N[C@H]4CC[C@H](N5CCN(CC6CC6)CC5)CC4)cc3OC)nc2N1C(C)C [volasertib]
Outline: as §1

[11] = compound: CCn1c(C(=O)N(C2CC2)C2CC2)cc2c3c(ncn3C)c(Nc3cc(C)n(C)n3)nc21
Outline: as §1

[12] = compound: CCn1cc(-c2ccnc3[nH]c(-c4cccc(CN(C)C)c4)cc23)c(-c2ccc(NC(=O)N(C)C)cc2)n1
Outline: as §1

[13] = compound: CN1CCC(CNc2ccc3ncc(-c4cccc(OC(F)(F)F)c4)n3n2)CC1
Outline: as §1

saracatinib = compound: CN1CCN(CCOc2cc(OC3CCOCC3)c3c(Nc4c(Cl)ccc5c4OCO5)ncnc3c2)CC1 [saracatinib]
Outline: as §1

sotrastaurin = compound: CN1CCN(c2nc(C3=C(c4c[nH]c5ccccc45)C(=O)NC3=O)c3ccccc3n2)CC1 [sotrastaurin]
Outline: as §1

Measured: log2 fold change

LETMD1 isoform 7 (UniProt Q6P1Q0)
inactive: ibrutinib 0.007 | [1] 0.04 | ralimetinib -0.001 | [2] -0.003 | [3] 0.024 | [4] 0.005 | [5] -0.063 | [6] 0.005 | [7] -0.092 | [8] 0.036 | vemurafenib 0.136 | [9] 0.026 | barasertib 0.053 | [10] -0.043 | volasertib 0.003 | [11] 0.014 | [12] -0.089 | [13] -0.32 | saracatinib -0.075 | sotrastaurin 0.035

LAS1L (UniProt Q9Y4W2)
inactive: ibrutinib -0.016 | [1] 0.017 | ralimetinib 0.043 | [2] -0.017 | [3] 0.042 | [4] 0.035 | [5] -0.061 | [6] -0.006 | [7] 0.037 | [8] 0.035 | vemurafenib -0.027 | [9] 0.007 | barasertib -0.003 | [10] -0.051 | volasertib -0.069 | [11] 0.009 | [12] -0.055 | [13] 0.099 | saracatinib -0.031 | sotrastaurin 0.049

LLGL1 (UniProt Q15334)
inactive: ibrutinib 0.007 | [1] 0.091 | ralimetinib 0.071 | [2] 0.015 | [3] -0.141 | [4] 0.033 | [5] -0.058 | [6] 0.019 | [7] 0.174 | [8] -0.011 | vemurafenib 0.06 | [9] -0.052 | barasertib -0.014 | [10] -0.057 | volasertib 0.02 | [11] -0.038 | [12] 0.033 | [13] -0.008 | saracatinib -0.097 | sotrastaurin 0.168

LSG1 (UniProt Q9H089)
inactive: ibrutinib -0.083 | [1] -0.033 | ralimetinib 0.026 | [2] 0.052 | [3] 0.032 | [4] 0.004 | [5] -0.187 | [6] 0.012 | [7] 0.013 | [8] 0.031 | vemurafenib -0.056 | [9] 0.046 | barasertib 0.037 | [10] -0.084 | volasertib -0.065 | [11] -0.01 | [12] -0.124 | [13] 0.064 | saracatinib 0.043 | sotrastaurin 0.024

LSM1 (UniProt O15116)
inactive: ibrutinib 0.133 | [1] -0.01 | ralimetinib -0.012 | [2] 0.028 | [3] -0.018 | [4] -0.021 | [5] 0.06 | [6] 0.008 | [7] 0.006 | [8] 0.019 | vemurafenib -0.046 | [9] 0.038 | barasertib -0.079 | [10] 0.04 | volasertib 0.031 | [11] 0.084 | [12] -0.186 | [13] 0.029 | saracatinib -0.025 | sotrastaurin -0.019

LIN54 (UniProt Q6MZP7)
inactive: ibrutinib 0.048 | [1] 0.002 | ralimetinib 0.072 | [2] -0.023 | [3] -0.051 | [4] 0.036 | [5] 0.049 | [6] -0.075 | [7] -0.042 | [8] -0.026 | vemurafenib 0.149 | [9] -0.001 | barasertib 0.053 | [10] 0.019 | volasertib -0.037 | [11] 0.034 | [12] -0.103 | [13] 0.104 | saracatinib -0.034 | sotrastaurin 0.01

LRPPRC (UniProt P42704)
inactive: ibrutinib 0.006 | [1] 0.023 | ralimetinib 0.027 | [2] 0.019 | [3] 0.018 | [4] -0.011 | [5] 0.038 | [6] -0.009 | [7] 0.052 | [8] 0.016 | vemurafenib 0.032 | [9] 0.024 | barasertib 0.101 | [10] -0.141 | volasertib -0.072 | [11] 0.076 | [12] 0.033 | [13] -0.087 | saracatinib 0.045 | sotrastaurin 0.005

LSM4 (UniProt Q9Y4Z0)
inactive: ibrutinib -0.004 | [1] -0.016 | ralimetinib -0.015 | [2] -0.023 | [3] 0.013 | [4] -0.021 | [5] -0.043 | [6] 0.005 | [7] 0.005 | [8] -0.02 | vemurafenib -0.004 | [9] -0.01 | barasertib -0.079 | [10] 0.066 | volasertib 0.051 | [11] -0.022 | [12] -0.137 | [13] 0.074 | saracatinib -0.012 | sotrastaurin -0.001

LSM7 (UniProt Q9UK45)
inactive: ibrutinib -0.057 | [1] -0.013 | ralimetinib -0.021 | [2] 0.018 | [3] 0.012 | [4] -0.076 | [5] -0.026 | [6] 0.028 | [7] -0.002 | [8] -0.021 | vemurafenib 0.023 | [9] 0 | barasertib 0.071 | [10] 0.061 | volasertib 0.043 | [11] 0 | [12] -0.125 | [13] 0.009 | saracatinib -0.007 | sotrastaurin -0.027

LIN7C (UniProt Q9NUP9)
inactive: ibrutinib 0.037 | [1] 0.051 | ralimetinib 0.077 | [2] 0.099 | [3] -0.012 | [4] 0.028 | [5] 0.009 | [6] -0.025 | [7] -0.042 | [8] -0.011 | vemurafenib -0.027 | [9] -0.004 | barasertib 0.003 | [10] 0.005 | volasertib 0.009 | [11] 0.083 | [12] 0 | [13] 0.004 | saracatinib 0.005 | sotrastaurin 0.041

LGALS3 (UniProt P17931)
inactive: ibrutinib -0.166 | [1] -0.056 | ralimetinib -0.104 | [2] 0.168 | [3] 0.011 | [4] 0.161 | [5] 0.396 | [6] -0.022 | [7] 0.015 | [8] -0.067 | vemurafenib -0.165 | [9] 0.044 | barasertib 0.118 | [10] 0.117 | volasertib 0.135 | [11] 0.071 | [12] 0.179 | [13] -0.101 | saracatinib 0.496 | sotrastaurin -0.035

Quoted at random: two records from the list.
LIN7C (UniProt Q9NUP9)
inactive: ibrutinib 0.037 | [1] 0.051 | ralimetinib 0.077 | [2] 0.099 | [3] -0.012 | [4] 0.028 | [5] 0.009 | [6] -0.025 | [7] -0.042 | [8] -0.011 | vemurafenib -0.027 | [9] -0.004 | barasertib 0.003 | [10] 0.005 | volasertib 0.009 | [11] 0.083 | [12] 0 | [13] 0.004 | saracatinib 0.005 | sotrastaurin 0.041

LSM4 (UniProt Q9Y4Z0)
inactive: ibrutinib -0.004 | [1] -0.016 | ralimetinib -0.015 | [2] -0.023 | [3] 0.013 | [4] -0.021 | [5] -0.043 | [6] 0.005 | [7] 0.005 | [8] -0.02 | vemurafenib -0.004 | [9] -0.01 | barasertib -0.079 | [10] 0.066 | volasertib 0.051 | [11] -0.022 | [12] -0.137 | [13] 0.074 | saracatinib -0.012 | sotrastaurin -0.001

Continuation.

LCMT2 (UniProt O60294)
inactive: ibrutinib -0.02 | [1] 0.003 | ralimetinib 0.083 | [2] -0.091 | [3] 0.218 | [4] 0.003 | [5] -0.078 | [6] 0.035 | [7] -0.035 | [8] 0.036 | vemurafenib 0.173 | [9] 0.133 | barasertib 0.085 | [10] -0.037 | volasertib -0.074 | [11] 0.011 | [12] -0.046 | [13] -0.057 | saracatinib 0.073 | sotrastaurin -0.058

LRRC40 (UniProt Q9H9A6)
inactive: ibrutinib 0.017 | [1] 0.011 | ralimetinib 0.019 | [2] 0.025 | [3] -0.011 | [4] 0.015 | [5] 0.002 | [6] -0.073 | [7] 0.01 | [8] -0.007 | vemurafenib 0.004 | [9] 0.015 | barasertib 0.034 | [10] -0.024 | volasertib -0.011 | [11] 0.018 | [12] 0.052 | [13] -0.052 | saracatinib 0 | sotrastaurin 0.021

LIMS1 isoform 3 (UniProt P48059)
inactive: ibrutinib 0.003 | [1] 0.033 | ralimetinib 0.003 | [2] 0.023 | [3] -0.036 | [4] -0.012 | [5] -0.01 | [6] 0.052 | [7] -0.023 | [8] -0.006 | vemurafenib -0.055 | [9] -0.006 | barasertib 0.014 | [10] 0.008 | volasertib 0.024 | [11] -0.002 | [12] -0.005 | [13] 0.045 | saracatinib 0.014 | sotrastaurin -0.162

LCP1 (UniProt P13796)
inactive: ibrutinib -0.006 | [1] -0.007 | ralimetinib -0.016 | [2] -0.024 | [3] -0.015 | [4] -0.017 | [5] -0.023 | [6] 0.023 | [7] -0.001 | [8] -0.019 | vemurafenib 0.001 | [9] -0.004 | barasertib -0.05 | [10] 0.029 | volasertib 0.024 | [11] -0.013 | [12] 0.029 | [13] 0.041 | saracatinib -0.012 | sotrastaurin 0.015
